Reference: PubChem BioAssay AID1259290 (Sanger Institute, 2017)
Aim: 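Identify kinases needed for colorectal cancer cell survival, with or without anchor drugs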 (primary screen). System: human SNUC1 colorectal cancer cells. Reagent: siRNA pool against human genes. Conditions: anchor drugs BYL719 1 µM, cetuximab 5 µg/ml or trametinib 10 nM, or DMSO vehicle alone. Read-out: 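Viability averaged over replicates and scaled to non-targeting siRNA, robust z-score with no drug, and synergy scores by drug for BYL719, cetuximab and trametinib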. Scale: viability z-score, siRNA alone: higher = more viable cells; low values mean essential gene. Active means: 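a knock-down without drug scoring a robust z under -3 counts as essential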. Calls: active = essential: knock-down alone cut viability (z below -3); inactive = no clear viability loss with knock-down alone.
This is a random part of 794 reagents tested. 9 of them (1.1%) count as active. 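Calls rest on knock-down alone, not drug synergy; synergy above 0.15 was grouped apart and does not affect calls.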 Further read-outs or replicates are left out here. No sequences are given here. Not given: the amount of reagent, the time to read-out.

PIK3R3 (GeneID 8503)
- viability z-score, siRNA alone: 0.936
- Outcome: inactive

RPS6KA2 (GeneID 6196)
- viability z-score, siRNA alone: 0.147
- Outcome: inactive

PI4K2A (GeneID 55361)
- viability z-score, siRNA alone: 0.339
- Outcome: inactive

FER (GeneID 2241)
- viability z-score, siRNA alone: -0.109
- Outcome: inactive

PAK2 (GeneID 5062)
- viability z-score, siRNA alone: 0.396
- Outcome: inactive

INSRR (GeneID 3645)
- viability z-score, siRNA alone: -0.22
- Outcome: inactive

CHD4 (GeneID 1108)
- viability z-score, siRNA alone: -1.66
- Outcome: inactive

WNK4 (GeneID 65266)
- viability z-score, siRNA alone: 0.936
- Outcome: inactive

NEK4 (GeneID 6787)
- viability z-score, siRNA alone: -1.13
- Outcome: inactive

AXL (GeneID 558)
- viability z-score, siRNA alone: -2.02
- Outcome: inactive

DGKG (GeneID 1608)
- viability z-score, siRNA alone: 0.936
- Outcome: inactive

STK38 (GeneID 11329)
- viability z-score, siRNA alone: -2.33
- Outcome: inactive

MYH10 (GeneID 4628)
- viability z-score, siRNA alone: -0.121
- Outcome: inactive

BMX (GeneID 660)
- viability z-score, siRNA alone: 0.592
- Outcome: inactive

Already shown: 3 of the entries above.
WNK4 (GeneID 65266)
- viability z-score, siRNA alone: 0.936
- Outcome: inactive

NEK4 (GeneID 6787)
- viability z-score, siRNA alone: -1.13
- Outcome: inactive

AXL (GeneID 558)
- viability z-score, siRNA alone: -2.02
- Outcome: inactive

The listing continues.
JAK1 (GeneID 3716)
- viability z-score, siRNA alone: 0.473
- Outcome: inactive

EPHB4 (GeneID 2050)
- viability z-score, siRNA alone: -0.484
- Outcome: inactive

NEK3 (GeneID 4752)
- viability z-score, siRNA alone: -1.48
- Outcome: inactive

ADCK5 (GeneID 203054)
- viability z-score, siRNA alone: 0.646
- Outcome: inactive

EPHA4 (GeneID 2043)
- viability z-score, siRNA alone: -0.919
- Outcome: inactive

CDADC1 (GeneID 81602)
- viability z-score, siRNA alone: 0.674
- Outcome: inactive

ETNK1 (GeneID 55500)
- viability z-score, siRNA alone: 0.756
- Outcome: inactive

PANK2 (GeneID 80025)
- viability z-score, siRNA alone: 0.936
- Outcome: inactive

OBSCN (GeneID 84033)
- viability z-score, siRNA alone: -0.459
- Outcome: inactive

TRPM7 (GeneID 54822)
- viability z-score, siRNA alone: 0.936
- Outcome: inactive
